Experimental findings from patent US20250099515A1, “LACTOBACILLUS ACIDOPHILUS TO INCREASE AGMATINE PRODUCTION BY MICROBIOTA” (SOCIETE DES PRODUITS NESTLE S.A., priority 2021, published 2025) are described below.

The subject of the data set is faeces extracts. Description: In house batch fermentation of donor faeces extracts. The format is cell-based. The settings on record: fermentation with arginine alone; average from concentration at 6 h + 24 h − 0 h.

Regarding `NCCCCN=C(N)N` [Agmatine, (4-aminobutyl) guanidine], the “Average concentration in house batch” value is 35.29 µM.

With `NCCCCN` [Putrescine, putrescine], the “Average concentration in house batch” value amounted to 5141.7 µM.

Consider `NCCCCNCCCN` [Spermidine, spermidine], for which the “Average concentration in house batch” value stood at 11.95 µM.
